Our source for the binding values is article PMC12107181 (2025).

For assay [1], the target named is T1, BD-COP1 (Arabidopsis) (UniProt P43254).
T1 sequence: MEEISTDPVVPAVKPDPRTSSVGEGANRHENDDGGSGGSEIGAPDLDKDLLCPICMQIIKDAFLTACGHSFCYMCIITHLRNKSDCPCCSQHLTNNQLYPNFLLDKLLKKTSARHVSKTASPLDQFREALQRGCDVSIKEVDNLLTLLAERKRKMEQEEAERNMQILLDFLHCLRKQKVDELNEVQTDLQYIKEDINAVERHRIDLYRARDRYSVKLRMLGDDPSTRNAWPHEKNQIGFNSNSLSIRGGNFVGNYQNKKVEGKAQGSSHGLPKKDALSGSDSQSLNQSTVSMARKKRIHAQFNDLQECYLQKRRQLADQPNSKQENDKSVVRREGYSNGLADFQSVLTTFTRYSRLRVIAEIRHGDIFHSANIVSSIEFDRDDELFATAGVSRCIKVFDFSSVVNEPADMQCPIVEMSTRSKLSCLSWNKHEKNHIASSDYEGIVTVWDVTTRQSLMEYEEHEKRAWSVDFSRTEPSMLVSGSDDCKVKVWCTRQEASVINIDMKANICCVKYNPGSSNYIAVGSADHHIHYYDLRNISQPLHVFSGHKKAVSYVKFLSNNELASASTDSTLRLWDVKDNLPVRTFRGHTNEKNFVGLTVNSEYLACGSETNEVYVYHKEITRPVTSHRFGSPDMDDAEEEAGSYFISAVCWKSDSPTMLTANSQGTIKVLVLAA
Briefly: two-hybrid; Y2H, quantified read-out with SD of three independent biological replicates (Fig. 2B, E, F); BD-COP1 or its mutants with AD fusions.

The next assay addresses T2, BD-SPA1 (Arabidopsis) (UniProt Q9SYX2).
T2 sequence: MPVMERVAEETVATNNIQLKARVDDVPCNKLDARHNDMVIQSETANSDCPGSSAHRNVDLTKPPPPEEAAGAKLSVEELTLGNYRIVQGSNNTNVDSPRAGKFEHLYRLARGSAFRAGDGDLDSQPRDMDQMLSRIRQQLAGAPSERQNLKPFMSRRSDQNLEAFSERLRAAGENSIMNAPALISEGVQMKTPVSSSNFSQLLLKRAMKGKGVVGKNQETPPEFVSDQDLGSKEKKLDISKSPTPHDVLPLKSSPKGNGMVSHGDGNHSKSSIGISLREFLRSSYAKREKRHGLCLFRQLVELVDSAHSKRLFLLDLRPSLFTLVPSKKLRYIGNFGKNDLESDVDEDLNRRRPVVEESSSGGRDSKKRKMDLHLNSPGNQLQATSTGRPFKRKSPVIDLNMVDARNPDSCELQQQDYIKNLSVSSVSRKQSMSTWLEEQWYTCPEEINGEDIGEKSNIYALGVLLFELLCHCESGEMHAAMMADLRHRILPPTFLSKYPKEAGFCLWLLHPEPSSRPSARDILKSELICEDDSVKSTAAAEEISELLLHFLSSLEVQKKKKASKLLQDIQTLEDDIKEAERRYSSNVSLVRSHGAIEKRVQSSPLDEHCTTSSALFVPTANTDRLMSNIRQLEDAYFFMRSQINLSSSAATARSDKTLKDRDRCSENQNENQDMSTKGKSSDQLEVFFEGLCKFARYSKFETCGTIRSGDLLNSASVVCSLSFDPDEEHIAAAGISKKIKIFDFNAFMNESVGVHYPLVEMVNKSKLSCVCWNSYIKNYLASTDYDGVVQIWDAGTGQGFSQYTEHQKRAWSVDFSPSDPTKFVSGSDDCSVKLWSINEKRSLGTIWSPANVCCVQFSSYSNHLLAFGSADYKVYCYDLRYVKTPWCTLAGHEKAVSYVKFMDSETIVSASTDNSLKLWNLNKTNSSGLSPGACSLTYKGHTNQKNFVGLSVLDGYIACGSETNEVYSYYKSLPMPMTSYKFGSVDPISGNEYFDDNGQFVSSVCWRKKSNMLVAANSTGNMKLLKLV
Briefly: two-hybrid; directed Y2H; BD fusion as bait, AD fusion as prey; transformed yeast grown on the indicated media at decreasing OD (Fig. 1A; the Y2H panels of SI Appendix, Figs. S4 and S5D, whose read-out was not shown, are put here).

Assay [2] deals with T1, BD-COP1 (Arabidopsis). The description is as above.

These are yes or no findings as the source states them, for the method shown. Some binding calls cover weakened binding; strength is not graded here. Where a sequence is shown, tags or fusion partners need not be part of it.

B1: AD-TCP10 (protein, UniProt O82277 1-361)
chain: MGLKGYSVGEGGGEIVEVQGGHIIRATGRKDRHSKVFTSKGPRDRRVRLSAHTAIQFYDVQDRLGYDRPSKAVDWLIKKAKTAIDKLELGETTTTTTRQEPVNTKPESPTLVFQRENNDQTQFVAANLDPEDAMKTFFPATTTTNGGGGTNINFQNYPHQDDNNMVSRTTTPPPNLSQDLGLSLHPFQGNNNTVVVPETNNFTTTHFDTFGRISGWNHHDLTMTSSSSSEHQQQEQEERSNGGFMVNHHPHHHHHQPSMMTLLNSQQQQVFLGGQQQQQQRGTLQSSLFPHSFRSWDHHQTTSDHHHHQNQASSMFASSSQYGSHGMMMMQGLSFPNTTRLLHGEEATQPNSSSSPPNSHL
Regarding B1, the binding entry with BD-COP1 (Arabidopsis) [1], with BD-SPA1 (Arabidopsis) and in the assay with BD-COP1 (Arabidopsis) [2] was “binds” in each case.

B2: AD-PAP2 (protein, UniProt Q9ZTC3 1-249)
chain: MEGSSKGLRKGAWTAEEDSLLRLCIDKYGEGKWHQVPLRAGLNRCRKSCRLRWLNYLKPSIKRGRLSNDEVDLLLRLHKLLGNRWSLIAGRLPGRTANDVKNYWNTHLSKKHESSCCKSKMKKKNIISPPTTPVQKIGVFKPRPRSFSVNNGCSHLNGLPEVDLIPSCLGLKKNNVCENSITCNKDDEKDDFVNNLMNGDNMWLENLLGENQEADAIVPEATTAEHGATLAFDVEQLWSLFDGETVELD
For the molecule B2, the binding entry in the assay with BD-COP1 (Arabidopsis) [1] is on record as “binds”.

B3: TCP4 (protein, UniProt Q8LPR5 1-420)
chain: MSDDQFHHPPPPSSMRHRSTSDAADGGCGEIVEVQGGHIVRSTGRKDRHSKVCTAKGPRDRRVRLSAHTAIQFYDVQDRLGFDRPSKAVDWLIKKAKTSIDELAELPPWNPADAIRLAAANAKPRRTTAKTQISPSPPPPQQQQQQQQLQFGVGFNGGGAEHPSNNESSFLPPSMDSDSIADTIKSFFPVIGSSTEAPSNHNLMHNYHHQHPPDLLSRTNSQNQDLRLSLQSFPDGPPSLLHHQHHHHTSASASEPTLFYGQSNPLGFDTSSWEQQSSEFGRIQRLVAWNSGGGGGATDTGNGGGFLFAPPTPSTTSFQPVLGQSQQLYSQRGPLQSSYSPMIRAWFDPHHHHQSISTDDLNHHHHLPPPVHQSAIPGIGFASGEFSSGFRIPARFQGQEEEQHDGLTHKPSSASSISRH
On to B3, for which the binding entry with BD-SPA1 (Arabidopsis) and in the assay with BD-COP1 (Arabidopsis) [2] was “binds” throughout.
